Values quoted from earlier work, collected in US20240158516A1, “METHODS FOR THE TREATMENT OF THYROID EYE DISEASE” (Horizon Therapeutics Ireland DAC, priority 2021, published 2024).
At least one structure is not confirmed: it was looked up by name or label, or the drawing left a doubt.

System: patients with TED (TAO or GO)
Conditions: three cumulative doses of ivGCs (2.25 g, 4.98 g, 7.47 g); even using the highest dose; cited from earlier work

SMILES: C[C@H]1C[C@@H]2[C@H]([C@@H](O)C[C@@]3(C)[C@H]2CC[C@]3(O)C(=O)CO)[C@@]2(C)C=CC(=O)C=C12 [methylprednisolone]
- mean reduction in proptosis: 0.6 mm
